Reference: publication PMC10901353, “Identification of a potent and selective LAPTc inhibitor by RapidFire-Mass Spectrometry, with antichagasic activity” (PLOS Neglected Tropical Diseases, 2024)

Legend:
Vero cells = assay: Cytotoxicity against infected Vero host cells in T. cruzi intracellular assay; type: cell-based, African green monkey; details: individual replicates
Protocol: Briefly, these cells were maintained at 37°C and 5% CO2 in MEM supplemented with 10% FCS, sub-culturing every 2–3 days at a ratio of 1:5 after 5 min treatment with Trypsin-EDTA (Gibco).
This assay was performed as described with the only modification that treatment was 96 h instead of 72 h. Briefly, Vero cells were infected overnight with tissue culture derived T. cruzi trypomastigotes in T225 tissue culture flasks (MOI 5). Any remaining free trypomastigotes were washed away with serum free MEM and the infected Vero cells were harvested by trypsinisation. Compounds (250 nL in DMSO) were dispensed using LabCyte ECHO (Beckman Coulter Life Sciences, USA) into each well of Corning black flat bottomed 384-well plates (Corning, USA). […] The infected Vero cells were then plated into the plates containing the compounds, at 4,000 cells per well in MEM media with 1% FCS. […] The plates were imaged on a Perkin Elmer Operetta high-content imaging system using a 20× objective. Images were analyzed using the Columbus system (Perkin Elmer). The algorithm first identified the Vero nuclei followed by demarcation of the cytoplasm and identification of intracellular amastigotes. This algorithm reported percent infected Vero cell and total number of Vero cells. All potency determinations were carried out in at least three independent replicates and are reported as pEC50 +/- standard deviation. pEC50 = -log(EC50[M]).

HepG2 cells = assay: Cytotoxicity assay on human HepG2 cells (resazurin); type: cell-based; details: individual replicates

Row | Structure (SMILES) | Hill Slope (Vero) (Vero cells) | Hill (HepG2) (HepG2 cells)
1 | Nc1[nH]cnc1-c1nc(-c2ccccc2)cs1 [Compound 7] | 0.8 and 0.738 and 0.6 and 0.9 | 
2 | N#CC(=Cc1cn(Cc2ccc(C(=O)O)o2)c2ccccc12)c1nc2ccccc2[nH]1 [Compound 15] | 2.0 and 1.4 and 11.0 | 
3 | CCCS(=O)(=O)c1ccc(NS(=O)(=O)c2sc3ccc(Cl)cc3c2C)cc1 [Compound 24] | 1.3 and 0.8 and 1.0 and 1.2 | 
4 | COc1ccc(CC(=O)Nc2nc(-c3ccccn3)cs2)c(OC)c1 [Compound 12] | 1.2 | 
5 | c1ccc(Cc2ccc(OCCn3ccnc3)cc2)cc1 [Compound 13] | 0.951 and 0.639 and 0.761 and 0.8 | 1.9 and 2.0
6 | COc1ccc2oc(C(=O)Nc3nc(-c4ccccn4)cs3)c(C)c2c1 [Compound 4] | 0.7 and 1.3 and 0.6 and 0.9 | 
7 | Cc1ccc2nc(-c3ccc(NS(=O)(=O)c4cc(C(=O)O)c(Cl)cc4Cl)cc3)sc2c1 [Compound 5] | 4.2 and 2.3 and 3.9 and 2.9 | 

Several values for one entry are separate records, joined by “and”; a condition that tells them apart may be missing. Identical values can stand only once.
